Source: US8962845B2, “Pyrazole compounds” (National Health Research Institutes, priority 2011, dated 2015)
Some entries share one result that the patent states for a list of compounds.

Amino acid sequences for entries named in this document (tags omitted).
UniProt P21554, whole entry: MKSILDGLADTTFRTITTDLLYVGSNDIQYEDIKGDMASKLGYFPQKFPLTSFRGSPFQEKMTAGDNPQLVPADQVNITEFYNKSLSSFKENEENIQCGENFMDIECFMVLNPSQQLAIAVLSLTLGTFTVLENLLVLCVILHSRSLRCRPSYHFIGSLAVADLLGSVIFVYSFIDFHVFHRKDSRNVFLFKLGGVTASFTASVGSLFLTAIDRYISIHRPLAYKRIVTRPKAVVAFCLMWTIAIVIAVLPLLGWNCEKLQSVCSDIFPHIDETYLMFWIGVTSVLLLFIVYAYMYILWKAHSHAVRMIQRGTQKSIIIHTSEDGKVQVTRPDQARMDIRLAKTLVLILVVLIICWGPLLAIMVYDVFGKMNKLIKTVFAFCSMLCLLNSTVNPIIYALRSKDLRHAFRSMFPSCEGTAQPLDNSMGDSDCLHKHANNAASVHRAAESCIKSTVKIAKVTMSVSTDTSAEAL

molecular target: T1, Human CB1 receptor (Homo sapiens, UniProt P21554); experiment: DELFIA GTP-binding assay; type: biochemical; details: 20 nM CP55,940; HEK293 membranes; units given in the value
T1 construct: expressed in transfected cells

Compound	EC50 for inhibiting Eu-GTP binding (CP55,940-stimulated CB1 receptor activation)
O=C(NN1CCCCC1)c1nn(-c2ccc(Cl)cc2Cl)c(-c2ccc(C#Cc3ccc(C(F)(F)F)cc3)s2)c1CNS(=O)(=O)N1CCC[C@H]1C(F)(F)F [Compound 150, 1-(2,4-dichlorophenyl)-N-(piperidin-1-yl)-5-(5-((4-(trifluoromethyl)phenyl)ethynyl)thiophen-2-yl)-4-(((S)-2-(trifluoromethyl)pyrrolidine-1-sulfonamido)methyl)-1H-pyrazole-3-carboxamide]	0.001 µM and 10 µM
CCCC#Cc1ccc(-c2c(CNS(=O)(=O)N(C)C)c(C(=O)NN3CCCCC3)nn2-c2ccc(Cl)cc2Cl)s1 [Compound 72, 1-(2,4-Dichlorophenyl)-4-((N,N-dimethylsulfamoylamino)methyl)-5-(5-(pent-1-ynyl)thiophen-2-yl)-N-(piperidin-1-yl)-1H-pyrazole-3-carboxamide]	0.001 µM and 10 µM
CN/C(=C\[N+](=O)[O-])NCc1c(C(=O)NN2CCCCC2)nn(-c2ccc(Cl)cc2Cl)c1-c1ccc(C#Cc2ccc(C(F)(F)F)cc2)s1 [Compound 13, (E)-1-(2,4-Dichlorophenyl)-4-((1-(methylamino)-2-nitrovinylamino)methyl)-N-(piperidin-1-yl)-5-(5-((4-(trifluoromethyl)phenyl)ethynyl)thiophen-2-yl)-1H-pyrazole-3-carboxamide]	0.001 µM and 10 µM
O=C(NN1CCCCC1)c1nn(-c2ccc(Cl)cc2Cl)c(-c2ccc(C#Cc3ccc(Cl)cc3)s2)c1CNS(=O)(=O)N1COC1 [Compound 61, 4-((1,3-Oxazetidine-3-sulfonamido)methyl)-5-(5-((4-chlorophenyl)ethynyl)thiophen-2-yl)-1-(2,4-dichlorophenyl)-N-(piperidin-1-yl)-1H-pyrazole-3-carboxamide]	0.001 µM and 10 µM
O=C(NN1CCCCC1)c1nn(-c2ccc(Cl)cc2Cl)c(-c2ccc(C(F)(F)F)cc2)c1CNS(=O)(=O)NC1CCCC1 [Compound 142, 4-((N-Cyclopentylsulfamoylamino)methyl)-1-(2,4-dichlorophenyl)-N-(piperidin-1-yl)-5-(4-(trifluoromethyl)phenyl)-1H-pyrazole-3-carboxamide]	0.001 µM and 10 µM
CCCC#Cc1ccc(-c2c(CNC(=S)NCC)c(C(=O)NN3CCCCC3)nn2-c2ccc(Cl)cc2Cl)s1 [Compound 68]	0.001 µM and 10 µM
O=C(NN1CCCCC1)c1nn(-c2ccc(Cl)cc2Cl)c(-c2ccc(C#Cc3ccc(C(F)(F)F)cc3)s2)c1CN1CCC(F)(F)C1 [Compound 106, 1-(2,4-Dichlorophenyl)-4-((3,3-difluoropyrrolidin-1-yl)methyl)-N-(piperidin-1-yl)-5-(5-((4-(trifluoromethyl)phenyl)ethynyl)thiophen-2-yl)-1H-pyrazole-3-carboxamide]	0.001 µM and 10 µM
O=C(NN1CCCCC1)c1nn(-c2ccc(Cl)cc2Cl)c(-c2ccc(C#Cc3ccc(C(F)(F)F)cc3)s2)c1CNS(=O)(=O)N1CCCC1 [Compound 10, 1-(2,4-Dichlorophenyl)-N-(piperidin-1-yl)-4-((pyrrolidine-1-sulfonamido)methyl)-5-(5-((4-(trifluoromethyl)phenyl)ethynyl)thiophen-2-yl)-1H-pyrazole-3-carboxamide]	0.001 µM and 10 µM
O=C(NN1CCCCC1)c1nn(-c2ccc(Cl)cc2Cl)c(-c2ccc(C#Cc3ccc(C(F)(F)F)cc3)s2)c1CN1CCC2(C1)CC2(F)F (centres unmarked) [Compound 104, 1-(2,4-Dichlorophenyl)-4-[(1,1-difluoro-5-azaspiro[2.4]hept-5-yl)methyl]-N-(piperidin-1-yl)-5-(5-{[4-(trifluoromethyl)phenyl]ethynyl}thiophen-2-yl)-1H-pyrazole-3-carboxamide]	0.001 µM and 10 µM
CNCc1c(C(=O)NN2CCCCC2)nn(-c2ccc(Cl)cc2Cl)c1-c1ccc(C#Cc2ccc(C(F)(F)F)cc2)s1 [Compound 88, 1-(2,4-Dichlorophenyl)-4-((methylamino)methyl)-N-(piperidin-1-yl)-5-(5-((4-(trifluoromethyl)phenyl)ethynyl)thiophen-2-yl)-1H-pyrazole-3-carboxamide]	0.001 µM and 10 µM
O=C(NCc1c(C(=O)NN2CCCCC2)nn(-c2ccc(Cl)cc2Cl)c1-c1ccc(C#Cc2ccc(C(F)(F)F)cc2)s1)NC1CC1 [Compound 20, 4-((3-Cyclopropylureido)methyl)-1-(2,4-dichlorophenyl)-N-(piperidin-1-yl)-5-(5-((4-(trifluoromethyl)phenyl)ethynyl)thiophen-2-yl)-1H-pyrazole-3-carboxamide]	0.001 µM and 10 µM
O=C(NN1CCCCC1)c1nn(-c2ccc(Cl)cc2Cl)c(-c2ccc(C#Cc3ccc(C(F)(F)F)cc3)s2)c1CNS(=O)(=O)c1cccs1 [Compound 40, 1-(2,4-Dichlorophenyl)-N-(piperidin-1-yl)-4-((thiophene-2-sulfonamido)methyl)-5-(5-((4-(trifluoromethyl)phenyl)ethynyl)thiophen-2-yl)-1H-pyrazole-3-carboxamide]	0.001 µM and 10 µM
CC1(C)CCN(S(=O)(=O)NCc2c(C(=O)NN3CCCCC3)nn(-c3ccc(Cl)cc3Cl)c2-c2ccc(C#Cc3ccc(C(F)(F)F)cc3)s2)CC1 [Compound 154, 1-(2,4-dichlorophenyl)-4-((4,4-dimethylpiperidine-1-sulfonamido)methyl)-N-(piperidin-1-yl)-5-(5-((4-(trifluoromethyl)phenyl)ethynyl)thiophen-2-yl)-1H-pyrazole-3-carboxamide]	0.001 µM and 10 µM
O=C(NN1CCCCC1)c1nn(-c2ccc(Cl)cc2Cl)c(-c2ccc(C#Cc3ccc(C(F)(F)F)cc3)s2)c1CNCC1COC1 [Compound 96, 1-(2,4-Dichlorophenyl)-4-((oxetan-3-ylmethylamino)methyl)-N-(piperidin-1-yl)-5-(5-((4-(trifluoromethyl)phenyl)ethynyl)thiophen-2-yl)-1H-pyrazole-3-carboxamide]	0.001 µM and 10 µM
O=C(NN1CCCCC1)c1nn(-c2ccc(Cl)cc2Cl)c(-c2ccc(Cl)cc2)c1CNS(=O)(=O)N1CCOCC1 [Compound 121, 5-(4-Chlorophenyl)-1-(2,4-dichlorophenyl)-4-((morpholine-4-sulfonamido)methyl)-N-(piperidin-1-yl)-1H-pyrazole-3-carboxamide]	0.001 µM and 10 µM
CC(C)S(=O)(=O)NCc1c(C(=O)NN2CCCCC2)nn(-c2ccc(Cl)cc2Cl)c1-c1ccc(C#Cc2ccc(C(F)(F)F)cc2)s1 [Compound 26, 1-(2,4-Dichlorophenyl)-4-((1-methylethylsulfonamido)methyl)-N-(piperidin-1-yl)-5-(5-((4-(trifluoromethyl)phenyl)ethynyl)thiophen-2-yl)-1H-pyrazole-3-carboxamide]	0.001 µM and 10 µM
O=C(NN1CCCCC1)c1nn(-c2ccc(Cl)cc2Cl)c(-c2ccc(C#Cc3ccc(C(F)(F)F)cc3)s2)c1Cn1cncn1 [Compound 111, 4-((1H-1,2,4-Triazol-1-yl)methyl)-1-(2,4-dichlorophenyl)-N-(piperidin-1-yl)-5-(5-((4-(trifluoromethyl)phenyl)ethynyl)thiophen-2-yl)-1H-pyrazole-3-carboxamide]	0.001 µM and 10 µM
O=C(NN1CCCCC1)c1nn(-c2ccc(Cl)cc2Cl)c(-c2ccc(C#Cc3ccc(C(F)(F)F)cc3)s2)c1CN1CC2C(C1)C2(F)F (centres unmarked) [Compound 105, 1-(2,4-Dichlorophenyl)-4-((6,6-difluoro-3-aza-bicyclo[3.1.0]hexan-3-yl)methyl)-N-(piperidin-1-yl)-5-(5-((4-(trifluoromethyl)phenyl)ethynyl)thiophen-2-yl)-1H-pyrazole-3-carboxamide]	0.001 µM and 10 µM
O=C(NN1CCCCC1)c1nn(-c2ccc(Cl)cc2Cl)c(-c2ccc(C#Cc3ccc(C(F)(F)F)cc3)s2)c1CNS(=O)(=O)NC1CCCCC1 [Compound 44, 4-((N-Cyclohexylsulfamoylamino)methyl)-1-(2,4-dichlorophenyl)-N-(piperidin-1-yl)-5-(5-((4-(trifluoromethyl)phenyl)ethynyl)thiophen-2-yl)-1H-pyrazole-3-carboxamide]	0.001 µM and 10 µM
Cc1[nH]c(=O)[nH]c(=O)c1S(=O)(=O)NCc1c(C(=O)NN2CCCCC2)nn(-c2ccc(Cl)cc2Cl)c1-c1ccc(C#Cc2ccc(C(F)(F)F)cc2)s1 [Compound 39]	0.001 µM and 10 µM
O=C(NN1CCCCC1)c1nn(-c2ccc(Cl)cc2Cl)c(-c2ccc(Cl)cc2)c1CNS(=O)(=O)N1CCS(=O)(=O)CC1 [Compound 122, 5-(4-Chlorophenyl)-1-(2,4-dichlorophenyl)-4-({[(1,1-dioxidothiomorpholin-4-yl)sulfonyl]amino}methyl)-N-(piperidin-1-yl)-1H-pyrazole-3-carboxamide]	0.001 µM and 10 µM
O=C(NN1CCCCC1)c1nn(-c2ccc(Cl)cc2Cl)c(-c2ccc(C#Cc3ccc(C(F)(F)F)cc3)s2)c1CN1CCC(C(F)(F)F)C1 (centres unmarked) [Compound 107]	0.001 µM and 10 µM
O=C(NN1CCCCC1)c1nn(-c2ccc(Cl)cc2Cl)c(-c2ccc(C#Cc3ccc(C(F)(F)F)cc3)s2)c1CNS(=O)(=O)N1CCS(=O)(=O)CC1 [Compound 38, 1-(2,4-Dichlorophenyl)-4-({[(1,1-dioxidothiomorpholin-4-yl)sulfonyl]amino}methyl)-N-(piperidin-1-yl)-5-(5-{[4-(trifluoromethyl)phenyl]ethynyl}thiophen-2-yl)-1H-pyrazole-3-carboxamide]	0.001 µM and 10 µM
